Results published in paper PMC6796926, “Pioneering function of Isl1 in the epigenetic control of cardiomyocyte cell fate”.
Results are given in words; binding and its absence hold for the method and conditions named. Binding seen in cells or lysates may run through a third protein. Some results given as binding are weak or reduced against the parent protein; the word gives no strength.

Protein sequences, listed by entry. Tags and fused reporters are not part of them.
UniProt Q6P9Z1: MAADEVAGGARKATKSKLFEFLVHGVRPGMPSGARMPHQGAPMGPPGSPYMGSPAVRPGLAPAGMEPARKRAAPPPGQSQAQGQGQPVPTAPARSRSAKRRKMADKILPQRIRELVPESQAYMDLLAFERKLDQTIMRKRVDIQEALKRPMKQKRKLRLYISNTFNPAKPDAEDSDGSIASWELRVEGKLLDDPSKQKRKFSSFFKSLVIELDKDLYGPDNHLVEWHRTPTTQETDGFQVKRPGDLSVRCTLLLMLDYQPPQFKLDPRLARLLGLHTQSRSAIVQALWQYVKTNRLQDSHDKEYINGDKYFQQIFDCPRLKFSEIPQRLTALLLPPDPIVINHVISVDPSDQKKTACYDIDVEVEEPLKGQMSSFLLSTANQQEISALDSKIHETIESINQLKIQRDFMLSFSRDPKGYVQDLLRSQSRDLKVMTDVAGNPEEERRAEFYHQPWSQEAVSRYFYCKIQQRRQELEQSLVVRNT
UniProt Q3TKT4: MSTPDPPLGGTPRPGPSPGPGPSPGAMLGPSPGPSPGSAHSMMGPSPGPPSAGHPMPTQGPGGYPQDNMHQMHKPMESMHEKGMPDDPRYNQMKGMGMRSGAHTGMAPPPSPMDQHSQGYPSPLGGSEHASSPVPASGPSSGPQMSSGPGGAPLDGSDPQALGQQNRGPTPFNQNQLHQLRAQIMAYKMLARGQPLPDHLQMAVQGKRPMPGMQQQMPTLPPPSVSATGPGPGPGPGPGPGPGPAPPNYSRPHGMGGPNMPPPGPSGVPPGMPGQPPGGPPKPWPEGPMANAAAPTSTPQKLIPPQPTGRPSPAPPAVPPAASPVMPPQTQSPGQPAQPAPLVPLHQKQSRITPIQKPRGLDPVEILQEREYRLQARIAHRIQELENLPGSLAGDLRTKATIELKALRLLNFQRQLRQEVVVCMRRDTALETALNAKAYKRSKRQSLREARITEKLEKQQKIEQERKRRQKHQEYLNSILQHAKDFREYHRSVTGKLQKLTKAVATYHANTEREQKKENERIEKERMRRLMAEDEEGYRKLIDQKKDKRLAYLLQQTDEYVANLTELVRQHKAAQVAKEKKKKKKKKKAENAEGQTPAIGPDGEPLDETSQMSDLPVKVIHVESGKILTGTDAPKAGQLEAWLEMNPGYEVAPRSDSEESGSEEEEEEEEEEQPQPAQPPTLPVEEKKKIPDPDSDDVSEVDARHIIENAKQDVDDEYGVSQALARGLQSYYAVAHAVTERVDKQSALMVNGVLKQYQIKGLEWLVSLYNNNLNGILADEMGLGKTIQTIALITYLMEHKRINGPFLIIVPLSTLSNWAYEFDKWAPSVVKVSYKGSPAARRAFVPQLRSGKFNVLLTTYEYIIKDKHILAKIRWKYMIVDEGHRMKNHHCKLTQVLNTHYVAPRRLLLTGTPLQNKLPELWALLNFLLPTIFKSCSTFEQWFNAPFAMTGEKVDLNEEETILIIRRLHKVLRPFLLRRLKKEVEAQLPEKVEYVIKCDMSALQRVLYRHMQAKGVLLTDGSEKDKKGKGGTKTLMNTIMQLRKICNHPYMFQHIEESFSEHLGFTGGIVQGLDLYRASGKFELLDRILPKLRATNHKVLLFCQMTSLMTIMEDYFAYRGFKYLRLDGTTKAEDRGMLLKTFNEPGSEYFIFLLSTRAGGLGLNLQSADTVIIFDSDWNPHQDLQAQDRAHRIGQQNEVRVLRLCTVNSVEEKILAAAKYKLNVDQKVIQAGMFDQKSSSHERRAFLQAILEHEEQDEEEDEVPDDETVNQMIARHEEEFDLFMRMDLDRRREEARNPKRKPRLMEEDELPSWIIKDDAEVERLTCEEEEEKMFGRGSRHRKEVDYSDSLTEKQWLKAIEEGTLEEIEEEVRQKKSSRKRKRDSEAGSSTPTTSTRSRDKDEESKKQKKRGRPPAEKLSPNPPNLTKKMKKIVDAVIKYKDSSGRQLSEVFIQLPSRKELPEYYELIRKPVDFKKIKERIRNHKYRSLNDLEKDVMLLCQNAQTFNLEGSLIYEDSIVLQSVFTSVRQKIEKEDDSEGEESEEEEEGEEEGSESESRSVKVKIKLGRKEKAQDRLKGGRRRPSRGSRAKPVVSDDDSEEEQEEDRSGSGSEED

Assays:
[1] = molecular target: T1, Isl1 (mouse (endogenous in mouse ESC-derived CPCs and mouse embryos)) (UniProt P61372); assay: co-IP; lysate of mouse ESC-derived cardiac progenitor cells (control and Baf60c knock-down); precipitated with anti-Isl1 antibody 39.4D5 and Protein G-Sepharose, 4 °C; western blot for Brg1 and Baf60c
T1 sequence: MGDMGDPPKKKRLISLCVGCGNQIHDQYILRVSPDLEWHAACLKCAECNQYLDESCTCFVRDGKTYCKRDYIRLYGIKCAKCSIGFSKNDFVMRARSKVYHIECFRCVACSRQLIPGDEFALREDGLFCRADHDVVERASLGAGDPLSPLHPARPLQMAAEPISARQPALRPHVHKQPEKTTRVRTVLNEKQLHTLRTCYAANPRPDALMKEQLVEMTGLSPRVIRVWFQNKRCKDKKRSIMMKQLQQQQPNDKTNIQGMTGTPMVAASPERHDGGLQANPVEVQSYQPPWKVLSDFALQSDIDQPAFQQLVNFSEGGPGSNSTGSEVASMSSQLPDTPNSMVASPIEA

[2] = molecular target: T1, Isl1 (mouse (endogenous in mouse ESC-derived CPCs and mouse embryos)); assay: co-IP; lysate of 30 homogenised mouse embryos (E8.25-E9); lysis buffer 50 mM Tris pH 7.5, 10 mM EGTA, 100 mM NaCl, 0.1% Triton X-100; precipitated with anti-Isl1 antibody 39.4D5 and Protein G-Sepharose, 4 °C; western blot for Brg1

binding [1] | binding [2] | Substance
binds | – | Baf60c (from UniProt Q6P9Z1 1-483)
binds | binds | Brg1 (from UniProt Q3TKT4 1-1613)
